The results are deposited in PubChem (AID1053133; Broad Institute, 2014).

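Vaccinia-infected cells with a two-color viral stage reporter; Venus fluorescence read on a plate reader; the cell line is not named here; timing not stated here.
The test concentration is not given here.
Percent change in Venus reporter signal; lower (more negative) values mean stronger inhibition of that viral stage.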

Values are in %.
How 0% and 100% were set is not given here.
Common to all entries: measured here: Venus reporter, other viral stage.
This is a side read-out of the assay, for part of the compounds, not drawn at random.

| Compound | activity change (Venus) (%) |
|---|---|
| `C[C@@H]1CN([C@@H](C)CO)C(=O)Cc2cc(NC(=O)CCCCCC(=O)Nc3ccccc3N)ccc2O[C@@H]1CN(C)Cc1ccc(C(F)(F)F)cc1` | -38.67 |
| `Cc1ccccc1-c1ccc([C@H]2[C@@H](CO)N3CCCCN(S(=O)(=O)Cc4ccccc4)C[C@H]23)cc1` | -56.61 |
| `C[C@H](CO)N1C[C@H](C)[C@H](CN(C)C(=O)NC2CCCCC2)Oc2c(NC(=O)c3nc4ccccc4s3)cccc2C1=O` | -30.68 |
| `CC(C)CC#Cc1ccc([C@H]2[C@@H](CO)N3CCCCN(C(=O)Cc4ccccn4)C[C@H]23)cc1` | -50.1 |
| `O=C(Nc1ccccc1)N1CCCCN2[C@H](CO)[C@H](c3ccc(C#Cc4ccccc4)cc3)[C@H]2C1` | -76.2 |
| `COc1ccc(S(=O)(=O)N(C)C[C@@H]2Oc3cc(C#CC4CC4)ccc3S(=O)(=O)N([C@H](C)CO)C[C@H]2C)cc1` | -44.63 |
| `C[C@@H]1CN([C@H](C)CO)C(=O)c2c(c3ccccc3n2C)-c2ccccc2CO[C@H]1CN(C)S(=O)(=O)c1ccc([N+](=O)[O-])cc1` | -19.7 |
| `C[C@@H]1CN([C@@H](C)CO)C(=O)Cc2cc(NS(=O)(=O)c3ccc(F)cc3)ccc2O[C@@H]1CN(C)Cc1ccc(Oc2ccccc2)cc1` | -36.43 |
| `COc1ccc(S(=O)(=O)N(C)C[C@H]2Oc3ccc(NC(=O)Nc4ccc(C(F)(F)F)cc4)cc3C(=O)N([C@H](C)CO)C[C@H]2C)cc1` | -38.83 |
| `COc1cccc(CN2CCC3(CC2)CN(S(C)(=O)=O)[C@@H](CO)c2[nH]c4cc(OC)ccc4c23)c1` | -50.21 |
| `COc1ccc(CN(C)C[C@H]2OCCCC[C@H](C)Oc3ccc(NC(=O)c4ccccc4)cc3C(=O)N([C@H](C)CO)C[C@@H]2C)cc1` | -26.5 |
| `Cc1ccc(-c2ccc3c(c2)O[C@H](CN(C)C(=O)C2CCC2)[C@@H](C)CN([C@@H](C)CO)S3(=O)=O)cc1` | -53.66 |
| `Cc1ccc(S(=O)(=O)Nc2ccc3c(c2)C(=O)N([C@@H](C)CO)C[C@H](C)[C@H](CN(C)S(=O)(=O)c2cccs2)OCCCC[C@H](C)O3)cc1` | -25.18 |
| `COc1ccc2c3c(n(C)c2c1)[C@H](CO)NCC31CCN(C(=O)Nc2ccccc2F)CC1` | -28.46 |
| `Cc1noc(C)c1NC(=O)Nc1cccc2c1O[C@H](CN(C)Cc1ccc(-c3ccccc3)cc1)[C@@H](C)CN([C@H](C)CO)C2=O` | -26.53 |
| `C[C@@H]1CCCCO[C@@H](CN(C)C(=O)Cc2ccccc2)[C@H](C)CN([C@@H](C)CO)C(=O)c2cc(NS(=O)(=O)c3ccc(Cl)cc3)ccc2O1` | -33.07 |
| `Cc1ccc(S(=O)(=O)Nc2ccc3c(c2)CC(=O)N([C@@H](C)CO)C[C@H](C)[C@@H](CN(C)CC2CCCCC2)O3)cc1` | -26.24 |
| `C[C@@H]1CN([C@H](C)CO)C(=O)c2cc(NC(=O)CCCCCC(=O)Nc3ccccc3N)ccc2O[C@@H]1CN(C)Cc1ccc(C(F)(F)F)cc1` | -27.81 |
| `CN(C)C(=O)c1cccc(-c2ccccc2[C@H]2[C@@H](C#N)N(C(=O)C3CC3)[C@H]2CO)c1` | -23.61 |
| `COc1ccc(S(=O)(=O)N(C)C[C@@H]2OCc3ccccc3-c3c(n(C)c4ccccc34)C(=O)N([C@H](C)CO)C[C@@H]2C)cc1` | -40.88 |
| `C[C@@H]1CN([C@@H](C)CO)C(=O)c2cccc(NC(=O)c3ccc(-c4nccs4)cc3)c2O[C@@H]1CN(C)C(=O)NC1CCCCC1` | -32.38 |
| `O=C(Nc1cc(F)ccc1F)N1CCCCN2[C@H](C1)[C@@H](c1ccc(-c3ccccc3)cc1)[C@@H]2CO` | -48.41 |
| `C[C@H](CO)N1C[C@H](C)[C@H](CN(C)Cc2ccc(Cl)c(Cl)c2)Oc2ccc(NC(=O)Cc3ccccc3)cc2C1=O` | -24.05 |
| `C[C@H](CO)N1C[C@H](C)[C@H](CN(C)Cc2ccc3c(c2)OCO3)OCCCC[C@H](C)Oc2ccc(NS(=O)(=O)c3ccccc3)cc2C1=O` | -36.86 |
| `CC(C)CC#Cc1ccc2c(c1)O[C@H](CN(C)C(=O)C1CCCCC1)[C@H](C)CN([C@@H](C)CO)S2(=O)=O` | -35.4 |
| `C[C@@H]1CCCCO[C@@H](CN(C)Cc2ccncc2)[C@H](C)CN([C@@H](C)CO)C(=O)c2cc(NC(=O)Nc3ccc(C(F)(F)F)cc3)ccc2O1` | -17.03 |
| `C[C@H]1CN([C@@H](C)CO)C(=O)Cc2cc(NS(=O)(=O)c3cccs3)ccc2O[C@H]1CN(C)Cc1ccc(Oc2ccccc2)cc1` | -24.49 |
| `N#Cc1cccc(-c2ccc([C@@H]3[C@@H](CO)N4CCCCN(C(=O)Nc5cccc(F)c5)C[C@H]34)cc2)c1` | -56.21 |
| `CN(C)C(=O)c1ccc(-c2ccc3c(c2)[C@H]2[C@H](CCN2C(=O)c2ccc(F)cc2)[C@@H](CO)N3C)cc1` | -40 |
| `COc1ccc(S(=O)(=O)N(C)C[C@H]2OCCCC[C@@H](C)Oc3ccc(NC(=O)CCC(F)(F)F)cc3C(=O)N([C@H](C)CO)C[C@H]2C)cc1` | -38.8 |
| `C[C@@H]1CN([C@@H](C)CO)C(=O)Cc2cc(NC(=O)Cc3ccccc3)ccc2O[C@H]1CN(C)Cc1ccc(C(F)(F)F)cc1` | -39.03 |
| `O=S(=O)(NC1CCN(Cc2ccc(OCCO)cc2)CC1)c1cc(C(F)(F)F)ccc1Cl` | -29.04 |
| `COc1ccccc1S(=O)(=O)N(C)C[C@H]1OCc2ccccc2-c2c(n(C)c3ccccc23)C(=O)N([C@@H](C)CO)C[C@@H]1C` | -53.59 |
| `Cc1noc(C)c1S(=O)(=O)N(C)C[C@@H]1OCCCC[C@@H](C)Oc2ccc(NC(=O)c3ccccc3)cc2C(=O)N([C@H](C)CO)C[C@H]1C` | -28.6 |

Once more, the final 3:

| Compound | activity change (Venus) (%) |
|---|---|
| `O=S(=O)(NC1CCN(Cc2ccc(OCCO)cc2)CC1)c1cc(C(F)(F)F)ccc1Cl` | -29.04 |
| `COc1ccccc1S(=O)(=O)N(C)C[C@H]1OCc2ccccc2-c2c(n(C)c3ccccc23)C(=O)N([C@@H](C)CO)C[C@@H]1C` | -53.59 |
| `Cc1noc(C)c1S(=O)(=O)N(C)C[C@@H]1OCCCC[C@@H](C)Oc2ccc(NC(=O)c3ccccc3)cc2C(=O)N([C@H](C)CO)C[C@H]1C` | -28.6 |